Results reported in publication PMC8246263.
These are yes or no findings as the source states them, for the method shown. In cells and extracts the contact can be indirect. Some results given as binding are weak or reduced against the parent protein; the word gives no strength.

Chains of the proteins cited; added tags and fusions are not shown. Lines headed by an entry give the natural chain unless they say otherwise; changes in a name come on top. A line that says so, or that is headed by a name, gives the form on record, which may keep a tag or linker. Residues count along the entry.
UniProt Q8IWY4, residues 24-988: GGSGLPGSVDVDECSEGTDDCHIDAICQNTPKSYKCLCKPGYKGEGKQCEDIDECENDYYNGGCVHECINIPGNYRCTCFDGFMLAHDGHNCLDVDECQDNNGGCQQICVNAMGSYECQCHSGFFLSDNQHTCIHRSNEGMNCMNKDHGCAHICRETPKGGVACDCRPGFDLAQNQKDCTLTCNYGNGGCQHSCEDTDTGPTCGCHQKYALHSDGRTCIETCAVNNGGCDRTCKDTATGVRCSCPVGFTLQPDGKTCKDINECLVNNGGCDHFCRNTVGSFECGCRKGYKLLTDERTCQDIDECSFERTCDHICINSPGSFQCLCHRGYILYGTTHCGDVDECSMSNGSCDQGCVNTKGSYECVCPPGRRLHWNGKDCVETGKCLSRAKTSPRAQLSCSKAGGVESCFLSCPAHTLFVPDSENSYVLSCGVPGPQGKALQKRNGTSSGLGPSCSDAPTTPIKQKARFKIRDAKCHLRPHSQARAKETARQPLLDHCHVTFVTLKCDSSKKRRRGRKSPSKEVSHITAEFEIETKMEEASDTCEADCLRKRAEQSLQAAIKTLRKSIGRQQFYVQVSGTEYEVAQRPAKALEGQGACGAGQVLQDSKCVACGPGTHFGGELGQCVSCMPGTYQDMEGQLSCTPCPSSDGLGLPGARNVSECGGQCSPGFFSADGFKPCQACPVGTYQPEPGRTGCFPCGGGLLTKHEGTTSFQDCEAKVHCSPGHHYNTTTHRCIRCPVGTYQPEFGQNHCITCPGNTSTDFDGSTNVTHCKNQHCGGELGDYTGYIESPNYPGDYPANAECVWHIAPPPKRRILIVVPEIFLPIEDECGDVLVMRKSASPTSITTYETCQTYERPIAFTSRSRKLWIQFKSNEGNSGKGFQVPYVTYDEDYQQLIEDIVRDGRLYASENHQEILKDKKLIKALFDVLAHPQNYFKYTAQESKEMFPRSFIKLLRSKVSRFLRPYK
MYC-tagged SCUBE3 wild type (Q8IX30, residues 21-993): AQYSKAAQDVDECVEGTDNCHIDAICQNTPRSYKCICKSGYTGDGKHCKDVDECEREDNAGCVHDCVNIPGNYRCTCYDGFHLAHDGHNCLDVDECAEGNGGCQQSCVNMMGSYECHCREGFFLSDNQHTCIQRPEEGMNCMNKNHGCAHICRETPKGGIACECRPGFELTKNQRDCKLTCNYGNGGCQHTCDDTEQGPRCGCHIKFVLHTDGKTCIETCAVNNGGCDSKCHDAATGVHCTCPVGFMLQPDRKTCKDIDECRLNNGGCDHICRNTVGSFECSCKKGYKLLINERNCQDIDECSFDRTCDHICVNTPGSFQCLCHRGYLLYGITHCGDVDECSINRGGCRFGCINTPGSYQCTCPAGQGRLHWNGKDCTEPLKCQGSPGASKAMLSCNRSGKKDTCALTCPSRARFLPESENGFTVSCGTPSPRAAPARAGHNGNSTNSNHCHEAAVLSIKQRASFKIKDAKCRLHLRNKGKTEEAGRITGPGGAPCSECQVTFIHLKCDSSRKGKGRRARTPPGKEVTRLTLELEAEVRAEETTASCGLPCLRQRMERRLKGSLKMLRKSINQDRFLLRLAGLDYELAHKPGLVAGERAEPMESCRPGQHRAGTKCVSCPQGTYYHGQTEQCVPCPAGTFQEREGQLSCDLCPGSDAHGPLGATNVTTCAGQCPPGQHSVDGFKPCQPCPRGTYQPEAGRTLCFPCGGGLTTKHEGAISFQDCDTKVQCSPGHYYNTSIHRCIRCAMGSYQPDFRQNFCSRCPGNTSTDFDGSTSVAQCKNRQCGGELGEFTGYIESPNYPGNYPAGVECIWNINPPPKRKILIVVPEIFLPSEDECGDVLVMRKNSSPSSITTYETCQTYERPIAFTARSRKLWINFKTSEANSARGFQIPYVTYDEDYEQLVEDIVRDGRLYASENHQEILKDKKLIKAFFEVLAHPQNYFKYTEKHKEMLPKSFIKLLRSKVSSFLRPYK
MYC-tagged SCUBE3 p.(Thr231Ala) (Q8IX30-1, form named): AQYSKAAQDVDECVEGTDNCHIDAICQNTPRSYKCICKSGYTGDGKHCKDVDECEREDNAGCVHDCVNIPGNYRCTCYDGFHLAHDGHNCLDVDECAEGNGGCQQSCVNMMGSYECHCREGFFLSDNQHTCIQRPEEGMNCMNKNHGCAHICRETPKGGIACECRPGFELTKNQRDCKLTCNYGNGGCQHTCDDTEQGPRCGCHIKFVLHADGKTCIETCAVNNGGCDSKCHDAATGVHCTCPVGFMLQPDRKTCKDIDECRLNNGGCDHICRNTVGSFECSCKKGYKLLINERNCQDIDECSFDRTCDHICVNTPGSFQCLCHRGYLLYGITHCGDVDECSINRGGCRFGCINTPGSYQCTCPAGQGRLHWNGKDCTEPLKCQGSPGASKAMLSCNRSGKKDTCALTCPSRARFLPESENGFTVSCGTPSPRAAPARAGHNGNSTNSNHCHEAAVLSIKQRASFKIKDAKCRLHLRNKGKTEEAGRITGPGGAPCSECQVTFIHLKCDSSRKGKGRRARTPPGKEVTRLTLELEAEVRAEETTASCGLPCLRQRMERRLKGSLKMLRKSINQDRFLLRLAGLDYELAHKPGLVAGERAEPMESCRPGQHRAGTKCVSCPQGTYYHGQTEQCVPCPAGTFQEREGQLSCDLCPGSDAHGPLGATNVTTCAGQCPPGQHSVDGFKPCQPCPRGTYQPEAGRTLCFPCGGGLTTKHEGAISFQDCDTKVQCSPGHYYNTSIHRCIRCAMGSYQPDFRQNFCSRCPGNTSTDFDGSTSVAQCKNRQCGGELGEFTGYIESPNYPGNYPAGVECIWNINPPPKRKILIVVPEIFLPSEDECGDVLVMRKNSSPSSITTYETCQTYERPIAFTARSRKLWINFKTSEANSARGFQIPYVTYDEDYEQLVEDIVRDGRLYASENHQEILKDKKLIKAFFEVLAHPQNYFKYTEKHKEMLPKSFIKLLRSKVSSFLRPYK

Target: HA-tagged SCUBE1 (human) (UniProt Q8IWY4)
Experiment: co-IP; HA-SCUBE1 and MYC-SCUBE3 co-transfected into HEK-293T cells; RIPA lysate after 48 h; precipitated with HA antibody on protein A/G magnetic beads at 4°C overnight; three RIPA washes; western blot with anti-Myc and anti-HA; three replicates quantified with ImageJ

binding | Substance
binds | MYC-tagged SCUBE3 p.(Thr231Ala) (from UniProt Q8IX30-1 21-993)
binds | MYC-tagged SCUBE3 wild type (from UniProt Q8IX30-1 21-993)
